Results of single-concentration screens

By UniProt entry, the sequences of proteins in these tests, tags left out. Residues count along the entry.
UniProt P9WFT3, whole entry: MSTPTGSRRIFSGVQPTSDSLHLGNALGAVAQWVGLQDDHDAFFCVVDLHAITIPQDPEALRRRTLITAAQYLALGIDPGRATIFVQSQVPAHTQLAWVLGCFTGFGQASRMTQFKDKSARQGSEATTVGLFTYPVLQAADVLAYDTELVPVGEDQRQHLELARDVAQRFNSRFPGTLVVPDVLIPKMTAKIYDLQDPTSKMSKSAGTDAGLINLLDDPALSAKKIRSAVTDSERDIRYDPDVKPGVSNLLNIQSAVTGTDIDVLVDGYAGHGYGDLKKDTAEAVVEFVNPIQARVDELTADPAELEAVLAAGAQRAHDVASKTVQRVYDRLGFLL
UniProt Q8IDJ8, 1-583: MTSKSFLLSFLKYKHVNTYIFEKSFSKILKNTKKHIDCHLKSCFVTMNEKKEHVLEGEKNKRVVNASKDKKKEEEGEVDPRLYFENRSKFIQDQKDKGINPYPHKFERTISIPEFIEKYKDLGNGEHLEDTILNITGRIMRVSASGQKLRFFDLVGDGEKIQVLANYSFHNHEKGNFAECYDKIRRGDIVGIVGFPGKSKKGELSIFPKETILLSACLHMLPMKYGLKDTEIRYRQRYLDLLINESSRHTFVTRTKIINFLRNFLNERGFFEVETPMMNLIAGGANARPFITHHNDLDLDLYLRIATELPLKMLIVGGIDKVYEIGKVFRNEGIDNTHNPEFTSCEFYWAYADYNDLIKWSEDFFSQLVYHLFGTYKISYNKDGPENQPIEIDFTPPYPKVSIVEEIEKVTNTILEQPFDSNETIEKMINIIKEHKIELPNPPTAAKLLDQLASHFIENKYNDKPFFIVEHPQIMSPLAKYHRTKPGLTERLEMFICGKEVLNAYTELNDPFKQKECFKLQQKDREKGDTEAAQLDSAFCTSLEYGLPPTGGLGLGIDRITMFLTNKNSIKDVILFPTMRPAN
UniProt P9WNZ1, whole entry: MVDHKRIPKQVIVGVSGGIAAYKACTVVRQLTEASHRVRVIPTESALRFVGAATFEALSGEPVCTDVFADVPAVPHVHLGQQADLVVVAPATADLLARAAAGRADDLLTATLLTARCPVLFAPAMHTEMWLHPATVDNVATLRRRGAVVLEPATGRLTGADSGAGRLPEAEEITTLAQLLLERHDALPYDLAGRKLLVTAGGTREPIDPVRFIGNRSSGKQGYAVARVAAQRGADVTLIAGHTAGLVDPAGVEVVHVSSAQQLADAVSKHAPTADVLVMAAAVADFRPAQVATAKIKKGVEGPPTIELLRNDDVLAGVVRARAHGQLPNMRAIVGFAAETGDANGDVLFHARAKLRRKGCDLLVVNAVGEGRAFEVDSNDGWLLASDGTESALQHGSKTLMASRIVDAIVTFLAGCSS
UniProt P9WPC5, whole entry: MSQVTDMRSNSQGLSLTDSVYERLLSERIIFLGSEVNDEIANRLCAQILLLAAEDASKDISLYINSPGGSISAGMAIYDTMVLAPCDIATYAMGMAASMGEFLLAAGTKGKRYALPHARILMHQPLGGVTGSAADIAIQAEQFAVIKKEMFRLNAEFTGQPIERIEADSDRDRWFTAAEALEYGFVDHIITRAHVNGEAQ
UniProt P9WPC3, whole entry partner: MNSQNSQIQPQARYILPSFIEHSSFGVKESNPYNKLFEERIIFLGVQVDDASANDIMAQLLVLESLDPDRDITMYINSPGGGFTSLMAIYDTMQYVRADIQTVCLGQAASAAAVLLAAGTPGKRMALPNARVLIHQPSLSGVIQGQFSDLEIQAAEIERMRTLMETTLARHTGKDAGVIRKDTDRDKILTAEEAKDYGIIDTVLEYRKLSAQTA
UniProt Q4DA54, 1-478: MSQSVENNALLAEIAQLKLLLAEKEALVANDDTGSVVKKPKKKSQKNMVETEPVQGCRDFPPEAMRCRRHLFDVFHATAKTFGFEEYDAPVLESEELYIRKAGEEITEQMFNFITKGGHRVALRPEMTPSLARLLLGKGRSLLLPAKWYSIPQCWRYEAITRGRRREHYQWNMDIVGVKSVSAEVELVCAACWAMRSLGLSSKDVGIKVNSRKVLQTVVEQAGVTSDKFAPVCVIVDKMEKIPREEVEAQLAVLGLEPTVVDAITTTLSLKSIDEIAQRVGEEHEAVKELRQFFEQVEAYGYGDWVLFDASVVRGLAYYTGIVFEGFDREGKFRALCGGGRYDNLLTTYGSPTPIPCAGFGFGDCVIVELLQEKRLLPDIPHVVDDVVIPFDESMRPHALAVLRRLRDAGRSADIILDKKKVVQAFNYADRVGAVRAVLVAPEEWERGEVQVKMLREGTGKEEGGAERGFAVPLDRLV

From ChEMBL document CHEMBL3988442, “University of Dundee, Small-Polar-MMV Screening Library” (2021).

MtTrpRS: 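Tryptophan-tRNA ligase, Mycobacterium tuberculosis (UniProt P9WFT3). Enzyme assay of tryptophanyl-tRNA synthetase; the read-out is not stated. Compounds at 10 µM. Higher most likely means stronger inhibition; the record gives no direction and few retests gave an IC50. About 65,000 compounds were tested under these conditions; 0.098% (about 64) showed 50% or more at least once.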
PfKRS1: 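Lysine-tRNA ligase, Plasmodium falciparum 3D7 (UniProt Q8IDJ8). Enzyme assay of the cytosolic lysyl-tRNA synthetase in 384-well plates, read by luminescence. Concentration: 30 µM. Higher reads as stronger inhibition, judged from the few compounds that gave an IC50. About 69,000 compounds were tested under these conditions; 0.071% (about 49) showed 50% or more at least once.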
CoaBC: 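Enzyme assay of CoaBC with a phosphate dye (Biomol Green) read at 650 nm. Target: Coenzyme A biosynthesis protein CoaBC, Mycobacterium tuberculosis (UniProt P9WNZ1). Compounds at 30 µM. Higher reads as stronger inhibition, judged from the few compounds that gave an IC50. Most strong results did not repeat in a second test. Size under these conditions: about 67,000 compounds, about 40 of them at 50% or above in at least one test.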
ClpP1P2: 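ClpP1P2, Mycobacterium tuberculosis (UniProt P9WPC5 and UniProt P9WPC3). Protease assay of ClpP1P2, read by the AMC dye that it sets free. Tested at 50 µM. Direction is inferred from only a few compounds that gave an IC50; most scored high, so higher reads as stronger inhibition. Most other retested compounds had strongly negative values. Size under these conditions: about 69,000 compounds, about 10 of them at 50% or above in at least one test.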
TcHisRS: 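Histidine-tRNA ligase, Trypanosoma cruzi CL Brener (UniProt Q4DA54). Enzyme assay of histidyl-tRNA synthetase; the read-out is not stated. Compounds at 30 µM. The record gives no direction; compounds that gave an IC50 in retests scored well above the rest, so higher reads as stronger inhibition. About 69,000 compounds were tested under these conditions; 0.045% (about 31) showed 50% or more at least once.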

Each number is a percent effect as filed. The controls that fix the scale are not given in the record; negative values are as filed. The compounds are a random part of those screened. A dash means the value is not listed here; it may have been measured.

structure,MtTrpRS,PfKRS1,CoaBC,ClpP1P2,TcHisRS
Cc1nc(CCCNC(=O)C2CC(=O)N(C3CCCC3)C2)sc1C (stereo unspecified),-1.806,1.086,-0.2439,-29.47,2.941
O=C(c1ccc[nH]1)N1CC[C@@H](OCC2CC2)[C@@H]1Cc1cccnc1,-0.8364,2.518,-3.226,-3.423,3.483
CCC(C)(C)CC(=O)NC(C)C(=O)Nc1ccc(-n2cncn2)cc1 (stereo unspecified),5.141,2.614,-0.128,-7.932,5.521
COCCN1C2(CCN(Cc3nccs3)C2)c2ccccc2S1(=O)=O (stereo unspecified),0,0.02239,5.75,8.954,9.804
CC(C)(C)c1noc(CCCC(=O)NCC2CCS(=O)(=O)C2)n1 (stereo unspecified),-4.283,0.8576,7.045,-23.11,5.764
Cc1cccc(C)c1NC(=O)CC(CN1CCN(C)CC1)C(=O)O (stereo unspecified),0.3079,0.7253,-11.32,-2.636,14.43
CC(C#N)CN(C)Cc1cc(Cl)cc2cccnc12 (stereo unspecified),-9.044,2.424,-3.226,-2.295,6.145
CNS(=O)(=O)c1cccc(C(C)NCc2ccsc2)c1 (stereo unspecified),-3.939,9.132,7.54,-6.604,0
Cc1cc(C2CCCN(CCCNS(C)(=O)=O)C2)n[nH]1 (stereo unspecified),-1.023,5.44,2.057,1.175,1.504
Cc1cc(C(=O)N2CC[C@H]3[C@H]2CCN3S(C)(=O)=O)c(C)o1,-,3.663,-3.465,3.388,6.63
CO[C@H]1CC[C@H]2[C@H]1OCCN2C(=O)c1nn(C)c2ccccc12,-,2.525,-3.415,18.95,-38.89
CNC(=O)c1ccc(NC(=O)NC(C)CCc2cccn2C)c(C)c1 (stereo unspecified),-2.155,0.5148,3.758,-16.24,3.061
CNS(=O)(=O)CC(=O)N(Cc1ccccc1)c1ccc(C)cc1,4.886,4.641,0.9926,-6.351,8.671
CCN1C[C@@H]2CN(Cc3cccs3)C[C@@H]2C1=O,-6.386,-3.877,1.527,1.241,6.796
O=C(Cn1nc2ccccc2n1)N1CCCC(O)(CN2CCCC2)C1 (stereo unspecified),-0.5757,1.201,2.822,-2.915,9.877
CC(SCCC(=O)NC(N)=O)c1cccc(F)c1 (stereo unspecified),-6.049,5.666,0.1626,10.28,3.922
CCNc1ncc(C(=O)NCc2ccc(F)c(C(F)(F)F)c2)cn1,1.731,5.066,-0.2554,-7.906,-3.636
Cn1c(C(=O)N2CCC(CC(N)=O)CC2)c(Cl)c2ccccc21,-2.189,-3.421,-1.873,2.69,3.061
Cc1nn(C)cc1C(=O)N1CCCC(c2nccn2Cc2cscn2)C1 (stereo unspecified),1.522,-0.3064,4.704,0.991,0.5025
CSC1=Nc2c(cnn2-c2ccc(C)cc2)C2=NCCCN12,-2.852,1.284,-5.263,-10.15,1.775
Fc1cnc(N2CCOCC3(CCCNC3)C2)nc1 (stereo unspecified),3.787,-3.696,13.24,12.37,6.897
Cc1nc(-c2cc(F)c3c(c2)CC(CN)O3)c[nH]1 (stereo unspecified),-0.2241,1.791,0.2457,-2.286,16.47
COc1cc(CNC(C)Cn2cccn2)cc2c1OCCO2 (stereo unspecified),1.753,-0.1684,1.419,-2.208,4.598
O=C(Nc1cnccn1)[C@@H]1COC[C@H]2CN(C3CCCC3)C[C@H]21,2.064,0.8068,8.489,-0.6805,0.5348
O=C(c1cccc(S(=O)(=O)NCCCc2ncc[nH]2)c1)N1CCOCC1,-0.4989,4.834,-1.066,-9.215,1.653
O=C(Cn1ccnc1)N1CC[C@H](Oc2cccc(F)c2)[C@@H](O)CC1,-3.851,0.9288,-19.85,-8.529,-0.565
Cc1cc(C)n(C2CN(CC(O)c3ccc(F)cc3)C2)n1 (stereo unspecified),-2.638,5.112,-1.687,-0.08178,-3.817
N#Cc1ccc(SCCC(=O)O)cc1,-2.878,-1.663,3.067,-13.96,2.469
CCN(CCO)C(=O)c1cc(Cn2c(C)nc3ccccc32)[nH]n1,-4.855,6.869,-3.704,7.792,8.458
O=C(N[C@@H]1CCN(Cc2cccc3nonc23)C[C@H]1O)c1cccnc1,1.91,8.846,4.847,-21.8,1.339
CC(C)(C)c1cn(C2CCN(C(=O)c3cncnc3)CC2)nn1,-0.1903,0.09719,-1.737,-7.776,-4.046
Oc1nc(N2CCCC2)nc2nccc(-c3ccccn3)c12,2.305,1.912,2.405,-26.04,2.484
CCOCC(=O)N(Cc1ccccn1)Cc1ccccc1C,3.489,7.294,1.572,-1.027,9.74
O=C1NC2(CCN(Cc3ccccc3Cl)CC2)CC1c1ccccc1 (stereo unspecified),-2.952,6.661,5.2,0.7066,3.448
CCn1nc(C)c2nn(CC(=O)NC3CCSCC3)cc21,-0.2867,-1.18,-4.018,-8.351,4.386
c1cc2c(cc1-n1nc(C3CC3)nc1-c1csnn1)OCCO2,-6.502,-0.0332,-3.125,-2.481,0.5525
CN(Cc1ccc([S+](C)[O-])cc1)c1cncc(Br)c1 (stereo unspecified),2.907,-0.9652,4.141,-8.362,2.488
Cc1ccc(C(=O)N(Cc2ccc(F)cc2F)C2CC2)c(=O)[nH]1,-1.487,-0.6003,10,-6.021,13.51
CC(C)c1nc(C2CCCN2Cc2cc(=O)n(C)c(=O)n2C)no1 (stereo unspecified),-9.714,0.4628,0.7833,-16.34,1.13
CC(C)N(C)S(=O)(=O)c1ccc2c(c1)CCN(C(=O)c1ccccn1)C2,-4.591,11.81,4.391,12.93,30.35
O=C1COC2(CCN(CC3CCOCC3)CC2)CN1Cc1ccccn1,0.7538,8.701,8.28,6.24,0.8
Cc1cc(NC(=O)CN2CCN(C3CCCC3)C(=O)C2)nn1C,-7.245,0.5936,-0.2421,-4.277,0.565
CCc1nc(CN2CCN(C(=O)C3(C#N)CCCCC3)CC2)cs1,-2.302,-1.239,2.806,-10.84,6.433
CCOCC1CN(C(=O)c2cscn2)Cc2cn(C)nc21 (stereo unspecified),4.354,2.897,8.316,15.16,7.563
Cc1cc(C)nc(C2CCN(C(=O)CO)CC2)n1,0.2604,-0.8542,-2.392,-8.508,-0.3831
Cc1nonc1NC(=O)C1SCCc2ccccc21 (stereo unspecified),3.396,13.07,1.22,-6.695,5.195
Cc1ccc(Cn2cc(Br)c(NS(C)(=O)=O)n2)cc1,2.073,2.316,-3.002,-5.554,1.739
COCCN1CCN(c2ncnc3nc(C)cc(C)c23)CC1,-1.102,5.92,0.5115,-11.09,4.04
COCCn1ccnc1C1CCN(Cc2ccccc2C#N)CC1,2.913,-1.548,1.474,-19.67,10.59
CN(C)C(=O)C1OC2(CCN(C(=O)c3ccoc3)CC2)c2ccccc21 (stereo unspecified),1.936,2.991,3.258,-0.07839,-1.22

The last 3 entries again:

| structure | MtTrpRS | PfKRS1 | CoaBC | ClpP1P2 | TcHisRS |
|---|---|---|---|---|---|
| `COCCN1CCN(c2ncnc3nc(C)cc(C)c23)CC1` | -1.102 | 5.92 | 0.5115 | -11.09 | 4.04 |
| `COCCn1ccnc1C1CCN(Cc2ccccc2C#N)CC1` | 2.913 | -1.548 | 1.474 | -19.67 | 10.59 |
| `CN(C)C(=O)C1OC2(CCN(C(=O)c3ccoc3)CC2)c2ccccc21` (stereo unspecified) | 1.936 | 2.991 | 3.258 | -0.07839 | -1.22 |